From PubChem BioAssay AID272 (DTP/NCI, 2004) come the findings set out here.

This test has as its system Lewis lung carcinoma i.m., BDF1 mice, T/C %. Briefly: NCI In Vivo Anticancer Drug Screen. Data for tumor model Lewis Lung Carcinoma (intramuscular) in B6D2F1 (BDF1) mice. The gist of the method: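 Transplantable tumour model; readout survival or tumour size; value = treated (T) / vehicle control (C).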

The list does not hold the whole screen: it gathers tests that were run many times, whatever their T/C, doses with no T/C, and many T/C values between a quarter and a half above the control. Other doses and runs of a compound stand elsewhere. T/C: endpoint of the treated group in % of that of the vehicle group. Some entries give survivors of the animals treated and no T/C: the source files T/C as zero there, which appears to mark a toxic dose or a test without result, not a measured value. Some doses without a T/C left all or most animals alive at the check, yet need not have been tolerated: the source hardly ever lists a survival T/C far under the control, and the zero likely stands for such cases as well. Survivors were counted at the toxicity check, usually on the fifth day, unless a day is given; later deaths do not show. Schedules are NCI's codes, taken here to give the interval after Q, in days (D) or hours (H), and the number of doses after X. For survival time, this PubChem deposit counts one and a half times the control or more as active, and values a quarter to a half above the control carry no call in these data; other NCI protocols may use other cut-offs.

For the compound `O=c1[nH]c(=O)n(C2CC(O)C(CO)O2)cc1C(F)(F)F` (centres undefined), the survivor count was 9 of 10 (T/C endpoint: median survival time, dose: 5.0 mg/kg/injection, schedule: Q01DX009 (ip), vehicle: saline, higher T/C = longer survival); 9 of 10 (T/C endpoint: median survival time, dose: 20.0 mg/kg/injection, schedule: Q01DX011 (ip), vehicle: saline + alcohol, higher T/C = longer survival); 4 of 10 (T/C endpoint: median survival time, dose: 20.0 mg/kg/injection, schedule: Q01DX012 (ip), vehicle: saline + alcohol, higher T/C = longer survival); 9 of 10 (T/C endpoint: median survival time, dose: 40.0 mg/kg/injection, schedule: Q01DX009 (ip), vehicle: saline, higher T/C = longer survival); 10 of 10 (T/C endpoint: median survival time, dose: 40.0 mg/kg/injection, schedule: Q01DX011 (ip), vehicle: saline + alcohol, higher T/C = longer survival); 10 of 10 (T/C endpoint: median survival time, dose: 40.0 mg/kg/injection, schedule: Q01DX012 (ip), vehicle: saline + alcohol, higher T/C = longer survival). Further, the survivor count by setting is: (T/C endpoint: median survival time, dose: 80.0 mg/kg/injection, schedule: Q01DX009 (ip), vehicle: saline, higher T/C = longer survival) 10 of 10; (T/C endpoint: median survival time, dose: 80.0 mg/kg/injection, schedule: Q01DX011 (ip), vehicle: saline + alcohol, higher T/C = longer survival) 8 of 10; (T/C endpoint: median survival time, dose: 80.0 mg/kg/injection, schedule: Q01DX012 (ip), vehicle: saline + alcohol, higher T/C = longer survival) 1 of 10; (T/C endpoint: median survival time, dose: 160.0 mg/kg/injection, schedule: Q01DX009 (ip), vehicle: saline, higher T/C = longer survival) 10 of 10; (T/C endpoint: median survival time, dose: 160.0 mg/kg/injection, schedule: Q01DX011 (ip), vehicle: saline + alcohol, higher T/C = longer survival) 0 of 10; (T/C endpoint: median survival time, dose: 160.0 mg/kg/injection, schedule: Q01DX012 (ip), vehicle: saline + alcohol, higher T/C = longer survival) 5 of 10. The survivor count (T/C endpoint: median survival time, dose: 320.0 mg/kg/injection, schedule: Q01DX009 (ip), vehicle: saline, higher T/C = longer survival) is given as 10 of 10; the survivor count (T/C endpoint: median survival time, dose: 320.0 mg/kg/injection, schedule: Q01DX011 (ip), vehicle: saline + alcohol, higher T/C = longer survival) is reported as 0 of 10; the survivor count (T/C endpoint: median survival time, dose: 320.0 mg/kg/injection, schedule: Q01DX012 (ip), vehicle: saline + alcohol, higher T/C = longer survival) is reported as 2 of 10.
Consider `O=C1NC(O)CCN1C1OC(CO)C(O)C1O` (centres undefined), for which the survivor count is, setting by setting: (T/C endpoint: median survival time, dose: 100.0 mg/kg/injection, schedule: Q01DX011 (ip), vehicle: water, higher T/C = longer survival) 8 of 8; (T/C endpoint: median survival time, dose: 200.0 mg/kg/injection, schedule: Q01DX011 (ip), vehicle: water, higher T/C = longer survival) 8 of 8; (T/C endpoint: median survival time, dose: 800.0 mg/kg/injection, schedule: Q01DX011 (ip), vehicle: water, higher T/C = longer survival) 8 of 8.
`CCCCCCCCCCCCCCCC(=O)OCC1OC(n2ccc(N)nc2=O)C(O)C1O` (centres undefined): the survivor count by setting is: (T/C endpoint: mean tumor weight (est.), dose: 100.0 mg/kg/injection, schedule: Q04DX003 (ip), vehicle: saline, higher T/C = larger tumour) 5 of 8; (T/C endpoint: mean tumor weight (est.), dose: 300.0 mg/kg/injection, schedule: Q01DX001 (ip), vehicle: saline, higher T/C = larger tumour) 2 of 8; (T/C endpoint: mean tumor weight (est.), dose: 600.0 mg/kg/injection, schedule: Q01DX001 (ip), vehicle: saline, higher T/C = larger tumour) 1 of 8; (T/C endpoint: median survival time, dose: 7.5 mg/kg/injection, schedule: Q01DX009 (ip), vehicle: saline, higher T/C = longer survival) 7 of 8; (T/C endpoint: median survival time, dose: 15.0 mg/kg/injection, schedule: Q01DX009 (ip), vehicle: saline, higher T/C = longer survival) 7 of 8; (T/C endpoint: median survival time, dose: 30.0 mg/kg/injection, schedule: Q01DX009 (ip), vehicle: saline, higher T/C = longer survival) 5 of 8. The survivor count reads like this: (T/C endpoint: median survival time, dose: 50.0 mg/kg/injection, schedule: Q04DX003 (ip), vehicle: saline, higher T/C = longer survival) 7 of 8; (T/C endpoint: median survival time, dose: 60.0 mg/kg/injection, schedule: Q01DX009 (ip), vehicle: saline, higher T/C = longer survival) 0 of 8; (T/C endpoint: median survival time, dose: 75.0 mg/kg/injection, schedule: Q01DX001 (ip), vehicle: saline, higher T/C = longer survival) 6 of 8; (T/C endpoint: median survival time, dose: 100.0 mg/kg/injection, schedule: Q04DX003 (ip), vehicle: saline, higher T/C = longer survival) 5 of 8; (T/C endpoint: median survival time, dose: 120.0 mg/kg/injection, schedule: Q01DX009 (ip), vehicle: saline, higher T/C = longer survival) 0 of 8; (T/C endpoint: median survival time, dose: 200.0 mg/kg/injection, schedule: Q04DX003 (ip), vehicle: saline, higher T/C = longer survival) 0 of 8. Also, the survivor count runs as follows: (T/C endpoint: median survival time, dose: 300.0 mg/kg/injection, schedule: Q01DX001 (ip), vehicle: saline, higher T/C = longer survival) 2 of 8; (T/C endpoint: median survival time, dose: 400.0 mg/kg/injection, schedule: Q04DX003 (ip), vehicle: saline, higher T/C = longer survival) 0 of 8; (T/C endpoint: median survival time, dose: 600.0 mg/kg/injection, schedule: Q01DX001 (ip), vehicle: saline, higher T/C = longer survival) 1 of 8. In addition, for the setting “T/C endpoint: median survival time, dose: 25.0 mg/kg/injection, schedule: Q04DX003 (ip), vehicle: saline, higher T/C = longer survival”, the T/C was 141 % of control.
